In publication PMC8605242:
These are yes or no findings as the source states them, for the method shown. Binding can be weak; no strength is given. For part of these data: In cells and extracts the contact can be indirect.

The chains behind the UniProt entries cited, without tags or fusion partners. Where a name states a change or a piece, a line headed by the entry shows the natural chain unless it says otherwise. Residues count along the entry.
UniProt I3L1U7: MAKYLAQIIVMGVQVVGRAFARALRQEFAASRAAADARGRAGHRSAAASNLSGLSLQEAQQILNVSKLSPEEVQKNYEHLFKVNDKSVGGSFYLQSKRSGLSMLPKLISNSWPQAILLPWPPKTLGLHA
UniProt Q99595: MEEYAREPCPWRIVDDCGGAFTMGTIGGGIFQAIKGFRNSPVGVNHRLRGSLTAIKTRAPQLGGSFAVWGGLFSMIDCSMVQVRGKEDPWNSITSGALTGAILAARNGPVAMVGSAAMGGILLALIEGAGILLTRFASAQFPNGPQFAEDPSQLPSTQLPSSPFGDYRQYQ
UniProt O60830: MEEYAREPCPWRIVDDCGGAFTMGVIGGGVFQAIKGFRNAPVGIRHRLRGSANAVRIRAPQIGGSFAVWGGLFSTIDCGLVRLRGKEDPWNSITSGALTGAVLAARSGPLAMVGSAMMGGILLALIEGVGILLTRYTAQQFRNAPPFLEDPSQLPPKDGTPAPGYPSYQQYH
UniProt Q9Y5T4, residues 69-146: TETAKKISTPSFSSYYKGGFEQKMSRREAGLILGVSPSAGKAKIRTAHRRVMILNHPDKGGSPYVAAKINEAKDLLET
UniProt Q96DA6: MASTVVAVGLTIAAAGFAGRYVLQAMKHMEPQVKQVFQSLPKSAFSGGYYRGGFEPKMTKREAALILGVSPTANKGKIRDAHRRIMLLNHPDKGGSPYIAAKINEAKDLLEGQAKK

Columns and labels:
[1] = target: GST-Magmas-2 (human) (UniProt I3L1U7); experiment: pull-down; 1 μM GST alone or GST-Magmas variants held on beads, increasing concentrations of DnaJC19J+T or DnaJC15J+T, 45 min, 24 °C; 50 mM Tris-HCl pH 7.5, 100 mM KCl, 0.2% Triton-X 100, 10% glycerol, 1 mM PMSF; blocked with 0.1% BSA; SDS-PAGE, Coomassie, densitometry; both purified
[2] = target: hexahistidine tagged Magmas-2 (human) (UniProt I3L1U7); experiment: pull-down; hexahistidine tagged Magmas variants on Ni-NTA beads; lysate of 2 mg HEK293T mitochondria in 25 mM HEPES-KOH pH 7.5, 80 mM KCl, 5 mM EDTA, 20 mM imidazole, 10% glycerol, 1 mM PMSF, 0.5% NP-40; 12 h, 4 °C; washes with 0.25% NP-40; immunoblot; only the target purified
[3] = target: T1, Tim23-3HA (S. cerevisiae) (UniProt P32897); experiment: co-IP; 2 mg yeast mitochondria from Tim23-3HA strains expressing Pam16, Magmas, Magmas-1 or Magmas-2 lysed in 25 mM Tris-HCl pH 7.5, 10% glycerol, 80 mM KCl, 5 mM EDTA, 1 mM PMSF, 1% digitonin; anti-HA antibody on protein G Sepharose, 3 h, 4 °C; washes with 0.5% digitonin; immunoblot
T1 sequence: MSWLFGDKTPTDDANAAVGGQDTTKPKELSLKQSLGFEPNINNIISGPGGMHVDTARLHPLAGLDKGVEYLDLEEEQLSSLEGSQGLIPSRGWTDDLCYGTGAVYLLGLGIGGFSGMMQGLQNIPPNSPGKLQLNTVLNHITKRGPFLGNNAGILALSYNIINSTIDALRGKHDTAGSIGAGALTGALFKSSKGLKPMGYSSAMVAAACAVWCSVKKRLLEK

binding [1] | binding [2] | Substance | other results
 | binds | Tim17a (from UniProt Q99595 1-171) | 
 | binds weakly | Tim17b (from UniProt O60830 1-172) | 

The next lines start with the substance.

Substance | binding [1] | binding [2] | other results
DnaJC15J+T (from UniProt Q9Y5T4 69-146) (domain or fragment) | binds |  | 
DnaJC19 (endogenous) (from UniProt Q96DA6 1-116) |  | binds weakly | 
DnaJC19J+T (from UniProt Q96DA6 34-112) (domain or fragment) | binds |  | 
Magmas-2, expressed in yeast (from UniProt I3L1U7) |  |  | binding [3]: binds
